Experimental data reported in US8507199B2, “Multi-color time resolved fluorophores based on macrocyclic lanthanide complexes” (Lumiphore, Inc., priority 2007, dated 2013).
At least one compound was matched to its structure with a doubt left.

Tests used:
[1] = Qualitative luminescent test under long wave UV light; type: physicochemical
[2] = Luminescence lifetime decay (biexponential fit) of FITC-Tb-BH22IAM conjugate; type: physicochemical; settings: direct excitation
Excerpt: A short lifetime corresponding to the direct excitation of fluorescein (3.92 nsec) and a long lifetime corresponding to excitation of BH22IAM and energy transfer to fluorescein (524 nsec).
In another exemplary embodiment, the compounds of the invention emit light at an emission wavelength of the fluorophore attached to the metal chelate through the acceptor-linker. […] For example, compound 3, when coordinated to terbium and excited at a BH22IAM absorption wavelength (˜340 nm), the metal chelate emits at 520 nm, the characteristic wavelength of fluorescein with a lifetime of 524 nsec. The new lifetime is over 100-fold longer than the lifetime for a fluorescein solution that is directly excited (<5 nsec).
The 524 nsec of the conjugated fluorescein is acquired through direct excitation of the Tb-BH22IAM complex at 340 nm, which normally has a very long lifetime (2.6 msec), followed by energy transfer to the conjugated fluorescein and emission at the characteristic wavelength for fluorescein (520 nm).

Row | Compound | luminescence under long wave UV light (366 nm) ([1]; ligand alone with sodium carbonate solution, no metal ion (control)) | luminescence under long wave UV light (366 nm) ([1]; ligand mixed with dilute terbium or europium salt solution and sodium carbonate solution) | lifetime of fluorescein solution that is directly excited [2] [nsec]
1 | NCCCCC1CN2CCNC(=O)c3cccc(c3O)C(=O)NCCN(CCNC(=O)c3cccc(c3O)C(=O)N1)CCN1CCNC(=O)c3cccc(c3O)C(=O)NCCN(CCNC(=O)c3cccc(c3O)C(=O)NCC1)CC2 (stereo not drawn) [Compound 4] | did not show luminescence | strong luminescence | 
2 | O=C1OC2(c3ccc(O)cc3Oc3cc(O)ccc32)c2ccccc21 [fluorescein, reference compound] |  |  | < 5
